Measured values published in publication PMC4511861.
Results are given in words; binding and its absence hold for the method and conditions named. In cells and extracts the contact can be indirect. A yes stands for co-enrichment or nearness to the bait. Other partners may have been found. Tags and fused reporters may be left off the sequences shown. One block for each molecule: values may come before it.

By UniProt entry, the sequences of proteins in these tests, tags left out.
UniProt P0DMV8: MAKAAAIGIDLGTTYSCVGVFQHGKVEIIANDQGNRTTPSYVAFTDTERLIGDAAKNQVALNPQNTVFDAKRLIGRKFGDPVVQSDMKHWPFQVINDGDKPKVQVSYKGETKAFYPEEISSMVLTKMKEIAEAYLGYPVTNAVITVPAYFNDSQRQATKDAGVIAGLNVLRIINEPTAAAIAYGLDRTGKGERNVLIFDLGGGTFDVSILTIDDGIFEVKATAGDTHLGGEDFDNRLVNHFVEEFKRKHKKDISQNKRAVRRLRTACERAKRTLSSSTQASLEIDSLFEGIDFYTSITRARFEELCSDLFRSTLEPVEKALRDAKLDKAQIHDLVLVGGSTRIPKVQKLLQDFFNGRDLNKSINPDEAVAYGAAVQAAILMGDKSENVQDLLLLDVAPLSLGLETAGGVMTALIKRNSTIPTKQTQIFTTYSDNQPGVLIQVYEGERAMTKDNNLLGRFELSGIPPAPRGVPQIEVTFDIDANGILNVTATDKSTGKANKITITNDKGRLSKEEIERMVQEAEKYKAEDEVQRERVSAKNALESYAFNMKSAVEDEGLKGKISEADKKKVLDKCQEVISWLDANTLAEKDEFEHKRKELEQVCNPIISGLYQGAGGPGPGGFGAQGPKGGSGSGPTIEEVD
UniProt P27708: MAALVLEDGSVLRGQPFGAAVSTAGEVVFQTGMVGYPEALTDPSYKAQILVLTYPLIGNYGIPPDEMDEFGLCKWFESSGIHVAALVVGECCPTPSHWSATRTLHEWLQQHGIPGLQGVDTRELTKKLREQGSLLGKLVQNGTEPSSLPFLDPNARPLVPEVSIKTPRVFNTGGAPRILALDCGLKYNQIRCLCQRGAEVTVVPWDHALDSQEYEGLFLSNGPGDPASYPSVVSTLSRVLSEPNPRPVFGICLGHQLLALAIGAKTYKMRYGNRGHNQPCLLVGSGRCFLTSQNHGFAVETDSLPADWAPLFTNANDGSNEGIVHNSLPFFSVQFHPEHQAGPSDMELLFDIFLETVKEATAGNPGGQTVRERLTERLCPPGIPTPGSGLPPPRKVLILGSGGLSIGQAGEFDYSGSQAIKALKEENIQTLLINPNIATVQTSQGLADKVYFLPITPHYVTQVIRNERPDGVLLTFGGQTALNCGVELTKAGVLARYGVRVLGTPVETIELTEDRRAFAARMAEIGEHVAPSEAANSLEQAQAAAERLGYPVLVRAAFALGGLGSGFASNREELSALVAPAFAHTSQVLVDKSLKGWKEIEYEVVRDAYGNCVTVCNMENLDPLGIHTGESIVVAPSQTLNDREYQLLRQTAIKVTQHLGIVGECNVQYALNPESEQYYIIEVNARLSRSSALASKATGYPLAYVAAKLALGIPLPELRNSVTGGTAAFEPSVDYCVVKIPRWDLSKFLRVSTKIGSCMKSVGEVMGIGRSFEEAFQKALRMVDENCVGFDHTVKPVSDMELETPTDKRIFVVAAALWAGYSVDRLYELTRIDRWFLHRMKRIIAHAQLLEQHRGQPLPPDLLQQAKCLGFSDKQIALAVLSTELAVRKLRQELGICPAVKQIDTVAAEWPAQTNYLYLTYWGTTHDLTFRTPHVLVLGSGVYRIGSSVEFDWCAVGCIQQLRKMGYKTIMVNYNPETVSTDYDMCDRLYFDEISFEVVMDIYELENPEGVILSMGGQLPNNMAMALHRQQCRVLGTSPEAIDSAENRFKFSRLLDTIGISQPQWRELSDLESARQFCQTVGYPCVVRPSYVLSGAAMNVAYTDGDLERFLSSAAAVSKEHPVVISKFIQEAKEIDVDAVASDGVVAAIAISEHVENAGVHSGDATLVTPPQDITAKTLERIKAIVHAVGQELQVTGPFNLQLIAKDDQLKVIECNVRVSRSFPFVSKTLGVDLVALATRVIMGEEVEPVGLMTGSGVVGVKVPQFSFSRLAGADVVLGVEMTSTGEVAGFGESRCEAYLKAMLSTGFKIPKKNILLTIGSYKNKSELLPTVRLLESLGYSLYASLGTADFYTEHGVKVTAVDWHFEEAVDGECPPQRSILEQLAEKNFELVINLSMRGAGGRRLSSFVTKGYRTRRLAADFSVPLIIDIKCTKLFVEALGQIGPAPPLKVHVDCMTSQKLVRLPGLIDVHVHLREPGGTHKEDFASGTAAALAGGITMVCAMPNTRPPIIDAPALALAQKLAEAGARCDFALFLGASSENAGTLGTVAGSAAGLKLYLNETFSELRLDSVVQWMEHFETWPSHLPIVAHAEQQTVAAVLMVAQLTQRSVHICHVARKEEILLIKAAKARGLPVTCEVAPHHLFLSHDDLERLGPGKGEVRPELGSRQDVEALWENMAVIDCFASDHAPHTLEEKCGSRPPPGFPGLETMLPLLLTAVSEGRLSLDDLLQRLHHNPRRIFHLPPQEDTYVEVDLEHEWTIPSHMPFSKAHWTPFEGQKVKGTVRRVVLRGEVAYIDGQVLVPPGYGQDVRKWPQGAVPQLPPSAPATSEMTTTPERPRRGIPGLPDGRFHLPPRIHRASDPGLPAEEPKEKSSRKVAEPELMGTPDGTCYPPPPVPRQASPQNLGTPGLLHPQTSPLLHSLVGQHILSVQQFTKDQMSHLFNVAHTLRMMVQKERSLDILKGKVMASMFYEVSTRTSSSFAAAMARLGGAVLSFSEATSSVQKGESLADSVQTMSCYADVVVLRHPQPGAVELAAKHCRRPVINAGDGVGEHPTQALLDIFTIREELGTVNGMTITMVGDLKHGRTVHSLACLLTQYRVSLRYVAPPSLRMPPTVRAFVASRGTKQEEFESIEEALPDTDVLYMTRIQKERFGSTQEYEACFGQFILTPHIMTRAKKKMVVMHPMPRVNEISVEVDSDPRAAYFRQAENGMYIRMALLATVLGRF

What was measured:
[1] = target: T1, N-terminal FLAG-WDR73 wild-type fusion protein (human) (UniProt Q6P4I2); assay: affinity purification with mass spectrometry; FLAG-WDR73 immunoprecipitated from transfected HEK-293T lysate; eluted proteins separated by SDS-PAGE, Coomassie bands unique against empty vector (FLAG peptide only) excised, trypsin, MALDI-TOF peptide mass fingerprinting; n = 4 replicates
T1 sequence: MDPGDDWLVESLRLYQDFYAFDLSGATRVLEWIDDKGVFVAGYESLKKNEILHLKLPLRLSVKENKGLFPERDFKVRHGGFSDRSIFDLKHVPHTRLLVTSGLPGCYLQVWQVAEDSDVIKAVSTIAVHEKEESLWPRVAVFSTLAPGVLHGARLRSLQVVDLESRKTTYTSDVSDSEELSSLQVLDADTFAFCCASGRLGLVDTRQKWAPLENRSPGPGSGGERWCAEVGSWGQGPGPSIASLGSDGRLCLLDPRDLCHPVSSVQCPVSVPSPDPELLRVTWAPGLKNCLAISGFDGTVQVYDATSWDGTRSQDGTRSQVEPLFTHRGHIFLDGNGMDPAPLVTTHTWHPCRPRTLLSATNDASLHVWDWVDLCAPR

[2] = target: T2, N-terminal FLAG-WDR73 wild-type fusion protein (human), Q6P4I2; assay: as above; settings: remark: other sources report otherwise
T2 chain: T1 sequence

binding [1]: binds
Molecule: heat shock protein HSP90 alpha isoform 2 (HSP-90) (from UniProt P07900 1-732)

binding [2]: binds
B1: β-tubulin 4B (TUBB4B), P68371 1-445 (protein)
chain: MREIVHLQAGQCGNQIGAKFWEVISDEHGIDPTGTYHGDSDLQLERINVYYNEATGGKYVPRAVLVDLEPGTMDSVRSGPFGQIFRPDNFVFGQSGAGNNWAKGHYTEGAELVDSVLDVVRKEAESCDCLQGFQLTHSLGGGTGSGMGTLLISKIREEYPDRIMNTFSVVPSPKVSDTVVEPYNATLSVHQLVENTDETYCIDNEALYDICFRTLKLTTPTYGDLNHLVSATMSGVTTCLRFPGQLNADLRKLAVNMVPFPRLHFFMPGFAPLTSRGSQQYRALTVPELTQQMFDAKNMMAACDPRHGRYLTVAAVFRGRMSMKEVDEQMLNVQNKNSSYFVEWIPNNVKTAVCDIPPRGLKMSATFIGNSTAIQELFKRISEQFTAMFRRKAFLHWYTGEGMDEMEFTEAESNMNDLVSEYQQYQDATAEEEGEFEEEAEEEVA

More lines, now with the values behind:

Molecule: heat shock 70-kDa protein 1A/1B (HSP-70) (from UniProt P0DMV8 1-641)
binding [1]: binds

Molecule: CAD (carbamoyl-phosphate synthetase 2, aspartate transcarbamylase, and dihydroorotase), endogenous (from UniProt P27708 1-2225) (enzyme)
binding [1]: binds
